# PubChem BioAssay AID485353 (National Center for Advancing Translational Sciences (NCATS), 2010)
# About 610 (0.18%) of roughly 330,000 compounds were called active. This list was built around the results that the source calls inconclusive (neither active nor inactive); the mix of calls is not that of the screen. Calls follow the shape of the full dose curve. Potencies of inconclusive entries are doubtful fits and often do not repeat.
# Test: qHTS of Yeast-based Assay for SARS-CoV PLP; also: nearly all actives have a fitted effect of over 55% in size
# Conditions: S. cerevisiae expressing SARS-CoV PLpro; Potency: growth rescue; series mostly up to 32.9 µM
# Potency is read from the fitted curve at half-maximal effect.
row,SMILES,Potency
1,C=CCN(CC=C)C(=O)c1ccncc1,"inconclusive: 0.398 µM [activator, partial curve, poor fit]"
2,Cc1ccccc1NC(=O)Cc1nc(CSc2nnc(-c3ccc4c(c3)OCO4)o2)cs1,"inconclusive: 11.2 µM [activator, single point]"
3,CCOc1ccc(NC(=O)NC2CCOC(C)(C)C2)cc1 (stereo not drawn),"inconclusive: 22.4 µM [activator, single point]"
4,COc1ccc([C@]23Cc4cc(OC)c(OC)cc4C(O2)C2=C(CC(C)(C)CC2=O)O3)cc1,"inconclusive: 1 µM [activator, single point]"
5,O=[N+]([O-])NC1=NCN(Cc2ccco2)CN1Cc1ccco1,inactive
6,O=C(CN1CCN(C(=S)NC2CCCC2)CC1)Nc1ccc(Oc2ccccc2)cc1,"inconclusive: 3.98 µM [activator, single point]"
7,COc1ccc(N/N=C(/N=Nc2nc(C)cc(=O)[nH]2)c2ccccc2)cc1,"inconclusive: 8.91 µM [activator, partial curve]"
8,COc1ccccc1CNC(=O)C(C)Oc1ccccc1 (stereo not drawn),"inconclusive: 20 µM [activator, single point]"
9,CCOC(=O)N1CCN(C(=O)C(=O)Nc2ccc3nc4n(c(=O)c3c2)CCCCC4)CC1,inactive
10,CCCCCNC(=O)c1ccc2c(=O)n(CC3CCCO3)c(=O)[nH]c2c1 (stereo not drawn),"inconclusive: 3.55 µM [activator, single point]"
11,O=C(c1ccco1)N1CCN(C/C=C/c2ccccc2)CC1,"inconclusive: 2.82 µM [activator, single point]"
12,O=C(CCNS(=O)(=O)c1ccccc1)N1CCN(c2ccccc2F)CC1,inactive
13,COc1cccc(N2CC(C(=O)Nc3nnc(SCc4cccnc4)s3)CC2=O)c1 (stereo not drawn),"inconclusive: 4.47 µM [activator, single point]"
14,CC(=O)OCCCN1C(=O)c2ccc(Br)cc2C1=O,inactive
15,COc1ccccc1NCC(=O)NC(=O)NC1CCCCC1,"inconclusive: 4.47 µM [activator, single point]"
16,CCOc1ccc(N(CC(=O)NC2CCC(C)CC2)S(=O)(=O)c2c(C)noc2C)cc1 (stereo not drawn),"inconclusive: 4.47 µM [activator, single point]"
17,O=C(Cn1cnc2c(nnn2Cc2ccccc2F)c1=O)NCC1CCCO1 (stereo not drawn),"inconclusive: 4.47 µM [activator, single point]"
18,COc1ccc(Cl)cc1NC(=O)COC(=O)/C=C/c1c(C)nn(C2CCS(=O)(=O)C2)c1Cl (stereo not drawn),"inconclusive: 3.98 µM [activator, single point]"
19,COc1cccc(-c2cc(C(=O)N3CCN(S(=O)(=O)c4ccccc4)CC3)[nH]n2)c1,"inconclusive: 11.2 µM [activator, single point]"
20,O=S(=O)(Nc1ccc(C(F)(F)F)cc1)c1cnc[nH]1,"inconclusive: 3.98 µM [activator, single point]"
21,CCN(CC)S(=O)(=O)c1cccc(NC(=O)c2cc(=O)[nH]c3ccccc23)c1,"inconclusive: 2.82 µM [activator, full curve, poor fit]"
22,Cn1c2ccccc2c2cc(/C=N/NC(=O)c3cc(O)cc(O)c3)ccc21,"inconclusive: 12.6 µM [activator, single point]"

# A second format for 2 compounds above:
row	SMILES	Potency
6	O=C(CN1CCN(C(=S)NC2CCCC2)CC1)Nc1ccc(Oc2ccccc2)cc1	inconclusive: 3.98 µM [activator, single point]
8	COc1ccccc1CNC(=O)C(C)Oc1ccccc1 (stereo not drawn)	inconclusive: 20 µM [activator, single point]

# Later entries

row,SMILES,Potency
1,Cc1c(Cc2ccccc2)sc(/N=C/c2ccc3ccccc3c2)c1C(N)=O,"inconclusive: 0.316 µM [activator, partial curve, poor fit]"
2,CC(CCc1ccco1)NC(=O)CCc1nnc2ccc(NCc3ccc(Cl)cc3)nn12 (stereo not drawn),"inconclusive: 11.2 µM [activator, single point]"
3,CN(CCOc1ccccc1)CC(=O)Nc1ccc(Cl)cc1[N+](=O)[O-],inactive
4,CC(=O)c1c(C)[nH]c2ccccc2c1=O,"inconclusive: 20 µM [activator, single point]"
5,CCOc1ccc(NC(=O)Cc2ccccc2)c([N+](=O)[O-])c1,"inconclusive: 3.55 µM [activator, partial curve]"
6,CN(C)c1ccc(C(=O)NCC(c2cccs2)N2CCOCC2)cc1[N+](=O)[O-] (stereo not drawn),"inconclusive: 3.98 µM [activator, single point]"
7,O=C(NC(=S)NNC(=O)c1cc2ccccc2cc1O)c1ccco1,inactive
8,CCOc1ccc(C(=O)Nc2ccc(C(=O)N3CCOCC3)cc2)c(OCC)c1,"inconclusive: 0.355 µM [activator, full curve, poor fit]"
9,CCN(C)c1ccc(/C=N\n2nnnc2N)cc1,"inconclusive: 2.82 µM [activator, single point]"
10,CC(=O)c1ccccc1NC(=O)CSc1nc2ccccc2c(=O)n1CCCN1CCOCC1,"inconclusive: 3.55 µM [activator, single point]"
11,CCn1c(SCC(=O)Nc2ccc(C)cc2)nnc1-c1cnccn1,"inconclusive: 14.1 µM [activator, single point]"
12,Cc1nn(CC(=O)NCCCN2CCCC2=O)c(C)c1[N+](=O)[O-],inactive
13,O=C(c1ccco1)N1CCCC(N2CCN(c3ccccc3F)CC2)C1 (stereo not drawn),"inconclusive: 2.24 µM [activator, full curve]"
14,COc1ccccc1CCNC(=O)CSc1nc(-c2ccco2)cc(C(F)(F)F)n1,"inconclusive: 1 µM [activator, full curve]"
15,COCc1cc(C2C(C(=O)c3ccco3)=C(O)C(=O)N2CCOCCO)ccc1O (stereo not drawn),active: 2.82 µM
16,CC(C)Oc1ccc(Cn2c(-c3ccco3)n[nH]c2=S)cc1,active: 22.4 µM
17,COc1cccc2cc(C(=O)N3CCC(C)CC3)c(=O)oc12,"inconclusive: 4.47 µM [activator, single point]"
18,Cc1ccc(N(CC(N)=O)C2SC(=O)NC2=O)cc1 (stereo not drawn),"inconclusive: 20 µM [activator, single point]"
19,CC(C)(C)OC(=O)NCCc1n[nH]c(=S)o1,inactive
20,COc1cccc(/C=N/NC(=O)c2c(C)nc3ccc(Br)cn23)c1O,"inconclusive: 0.355 µM [activator, partial curve, poor fit]"
21,O=C(CN1CCc2ccccc21)NC(c1ccccc1)c1ccccc1,"inconclusive: 28.2 µM [activator, partial curve, poor fit]"
